Test results taken from patent publication US20080269116A1 (priority 2004, published 2008).

Tested on: LPS induced murine endotoxemia
Test: Spleen gene expression profile in LPS-induced murine endotoxemia (NIA murine 17K array)
Assay type: in vivo, mice
[1] = LPS 4 h vs LPS 4 h+Ghrelin, spleen
[2] = LPS 24 h vs LPS24 h+Ghrelin, spleen

## ghrelin
[1]
  anti-inflammatory target genes down-regulated: camodulin1, thioredoxin reductase, glutamate-cysteine ligase, carbonic anhydrase 2, squalene epoxidase, GAB1, and Trcp
  anti-inflammatory target genes upregulated: IGF-1, estrogen receptor 1 (alpha), and TIMP4
  downregulated ESTs: 95
  downregulated known genes: 156
  upregulated ESTs: 76
  upregulated known genes: 72
[2]
  anti-inflammatory target genes detected among downregulated genes: leukotriene A4 hydrolase, PECAM, LPS-induced TN factor, TANK, and Star
  anti-inflammatory target genes detected among upregulated genes: Tom1 (target of Myb 1), thioredoxin reductase, glutamate-cysteine ligase (catalytic subunit) and glucocorticoid-induced gene 1
  downregulated ESTs: 187
  downregulated known genes: 168
  upregulated ESTs: 118
  upregulated known genes: 143
Sham vs Ghrelin, spleen
  anti-inflammatory target genes downregulated: lipoprotein lipase, fatty acid synthase, S-adenosyl homocysteine hydrolase, peripheral benzodiazepine receptor, TANK, serum glucocorticoid dinase (SGK), and lysophospholipase 1
  anti-inflammatory target genes upregulated: PACAP receptor and CD22 were both upregulated
  downregulated ESTs: 94
  downregulated known genes: 134
  upregulated ESTs: 51
Sham vs Ghrelin, spleen, ghrelin 0.5 mg/kg i.p., 1.5-fold mean ratio change
  upregulated known genes: 71
Endotoxemia model, overall
  NFkB regulatory genes regulated by ghrelin: TRCP, TOM1, AP2, GAB1 and TANK
